# Experimental data: PubChem BioAssay AID504764 (Drosophila RNAi Screening Center, 2011)
# Test: 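Genes whose knock-down alters Notch-dependent transcription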 (primary screen)
# System: Drosophila Kc167 cells
# Knock-down reagent: long dsRNA against Drosophila genes
# Timing: about 5 days (4 days dsRNA, then 24 h after transfection)
# Conditions: transfection of constitutively active membrane-tethered Notch lacking the extracellular domain, read 24 h later
# Measurement: 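Light from a Notch-responsive E(spl)m3 luciferase reporter under active Notch, with control-promoter and no-Notch reporter wells to normalise; raw counts from paired wells a and b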
# Scale: induced reporter light, run 1, well a and induced reporter light, run 1, well b: higher = more light from the Notch target reporter with active Notch; control promoter light, run 1, well a and control promoter light, run 1, well b: higher = more light from the viral control promoter (cell number, transfection, viability); uninduced reporter light, run 1, well a: higher = more light from the Notch target reporter without active Notch
# Active means: 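Hit if the duplicate-averaged log2 ratio of induced to control-promoter light gives a plate-wise z beyond ±2, or induced to uninduced beyond ±1.8; weak-control or discordant-duplicate wells dropped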
# Meaning of the calls: active = modifier hit (raised or lowered Notch signal); inactive = not a hit
# The screen tested about 22,000 reagents; this is an unselected part of those that have a named target and a result. Of all reagents, 403 (1.9%) are marked active. 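Unnormalised raw counts per well; ratio z-scores behind the hit calls and whether each hit raises or lowers signal are not deposited.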 Unmarked entries are inactive. Reagents against one gene are numbered here. Names joined by + are all predicted targets of the reagent. The record does not give: the amount of reagent.
target gene,reagent no.,"induced reporter light, run 1, well a","induced reporter light, run 1, well b","control promoter light, run 1, well a","control promoter light, run 1, well b","uninduced reporter light, run 1, well a"
Sara,1,60620,47765,49100,67975,3675
Trpgamma,1,7955,7830,11638,8918,700
Socs16D,1,25230,23150,27200,21725,5910
CG31556 (retired record),1,1.29e5,1.44e5,1.55e5,98970,12460
crok,1,1.41e5,1.41e5,1.43e5,1.50e5,12165
CG42246,1,96050,87390,93710,71680,6035
Cyp4ac3,1,1.86e5,1.96e5,2.06e5,2.20e5,20145
Usp30,1,1.48e5,1.55e5,3.05e5,2.47e5,11755
brp,1,1.50e5,1.69e5,1.98e5,1.92e5,14650
brp,2,1.70e5,1.45e5,1.86e5,2.02e5,15255
brp,3,1.76e5,1.61e5,2.06e5,2.12e5,16285
wmd,1,1.45e5,1.36e5,1.03e5,1.33e5,13830
CG11655,1,46050,33720,50960,40595,6940
CG12316,1,1.26e5,1.23e5,64440,76555,11260
qua,1,1.23e5,1.47e5,1.41e5,1.73e5,9790
Spase25,1,1.73e5,2.09e5,2.24e5,2.40e5,11738
Rpn12R,1,2.13e5,2.00e5,3.99e5,3.46e5,10938
CG31948,1,1.36e5,1.13e5,1.09e5,76845,10220
CG15258,1,1.15e5,1.32e5,1.31e5,1.59e5,11145
CG7102,1,1.56e5,1.89e5,1.67e5,1.94e5,16300
CG7102,2,1.47e5,1.70e5,1.27e5,1.17e5,17615
CG31156,1,1.11e5,1.24e5,1.21e5,1.39e5,10120
CG31156,2,1.72e5,1.97e5,2.37e5,1.92e5,15700
Best4,1,1.90e5,2.16e5,2.66e5,2.17e5,13595
Ypel,1,2.13e5,1.68e5,2.57e5,3.09e5,11800
CG14075,1,92145,54245,61010,68905,4935
Delta,1,2.05e5,2.00e5,2.22e5,2.43e5,14335
ND-ASHI,1,1.49e5,1.67e5,2.35e5,2.00e5,8742
Muc68E,1,1.89e5,1.83e5,1.87e5,1.85e5,13710
Pde9,1,1.07e5,84805,1.24e5,1.27e5,7420
Pde9,2,97240,1.12e5,2.03e5,1.89e5,7820
Pde9,3,82840,1.00e5,1.03e5,1.15e5,6065
Pde9,4,1.24e5,1.17e5,1.66e5,1.91e5,8165
CG34178 + CG34177,1,1.74e5,1.79e5,1.57e5,1.99e5,11940
CG14232,1,1.30e5,1.31e5,90985,67190,10040
CG17109,1,1.69e5,1.74e5,2.08e5,1.82e5,14755
CG7878,1,81660,94095,95575,79620,7210
CG32107,1,1.95e5,1.72e5,2.63e5,2.48e5,17405
CG1791,1,1.72e5,1.67e5,2.23e5,2.17e5,13905
CG32816,1,51420,68420,82455,83365,5530
RpL18A,1,10970,7565,7570,8540,1510
Tsp42Ek,1,2.63e5 (active),2.36e5,2.57e5,2.14e5,16910
PGRP-SA,1,1.42e5,1.27e5,2.07e5,2.08e5,10085
ave,1,2.54e5,1.99e5,2.04e5,2.24e5,15310
CG2701,1,1.77e5,1.63e5,2.41e5,2.29e5,11400
CG17919,1,1.39e5,1.38e5,86710,73405,11270
Osi9,1,1.80e5,1.49e5,2.70e5,2.77e5,11645
mRpL48,1,1.53e5,1.40e5,1.43e5,1.06e5,9015
Fdx1,1,2.35e5,1.76e5,2.62e5,2.28e5,13240
CG17672,1,5580,5120,8385,8888,6570
CG17672,2,1.42e5,1.26e5,1.14e5,67270,14332

4 entries already listed, sorted by “induced reporter light, run 1, well b”, low to high:
target gene,reagent no.,"induced reporter light, run 1, well a","induced reporter light, run 1, well b","control promoter light, run 1, well a","control promoter light, run 1, well b","uninduced reporter light, run 1, well a"
RpL18A,1,10970,7565,7570,8540,1510
CG32816,1,51420,68420,82455,83365,5530
CG1791,1,1.72e5,1.67e5,2.23e5,2.17e5,13905
CG32107,1,1.95e5,1.72e5,2.63e5,2.48e5,17405
